Results are given in words; binding and its absence hold for the method and conditions named. Some results given as binding are weak or reduced against the parent protein; the word gives no strength.

Sequences of proteins named here, by UniProt entry; tags and fusion partners are left off. Residues count along the entry.
UniProt Q16552, residues 24-155: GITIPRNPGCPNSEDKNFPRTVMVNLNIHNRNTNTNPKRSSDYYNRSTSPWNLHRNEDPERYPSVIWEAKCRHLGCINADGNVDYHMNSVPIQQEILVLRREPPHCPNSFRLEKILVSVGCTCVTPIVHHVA

Here are results for one molecule from patent US20190256588A1.

This assay deals with recombinant human IL-17A (human) (UniProt Q16552). The assay is described as follows: ELISA, human IL-17A coated on plate, hybridoma culture supernatant.

B1: monoclonal antibody secreted by Clone No. 88 (antibody, V domains shown)
VH: DVQVQESGPGLVKPSQSLSLTCTVTGNSITSYYAWNWIRQFPGNKLEWMGYITYSGTTSYNPSLKSRISITRDTSKNQFFLQLNSVTTEDTATYYCAREEYDDIYAVDYWGQGTSVTVSS
VL: IIVMTQTPLSLPVSLGDQASISCRSSQSLVHSNGNTYLHWYLQKPGQSPKLLIYKVYNRFSGVPDRFSGSGSGTDFTLKISRVEAEDLGVYFCSQSTHFPTFGGGTKLEIK
For B1, the binding result is given as “binds”.
